The values below come from paper PMC10060354, “Discovery of a small molecule ligand of FRS2 that inhibits invasion and tumor growth” (Cellular Oncology, 2022).

This data set has as its system Caco-2 cells. Put plainly: CaCo-2 permeability (bi-directional). As to conditions: HBSS/HBSS; pH 7.4/7.4. On the procedure: Caco-2 cells obtained from the ATCC were used between passage numbers 40—60. Cells were seeded onto Millipore Multiscreen Transwell plates at 1 × 10^5 cells/cm^2. The cells were cultured in DMEM and media was changed every two or three days. On day 20, the permeability study was performed. […] Cells were then incubated with HBSS at the desired pH in both apical and basolateral compartments for 40 min to stabilize physiological parameters.
The fluorescent integrity marker lucifer yellow was also included in the dosing solution. Analytical standards were prepared from test compound DMSO dilutions and transferred to buffer, maintaining a 1% v/v DMSO concentration.
For assessment of A-B permeability, HBSS was removed from the apical compartment and replaced with test compound dosing solution. The apical compartment insert was then placed into a companion plate containing fresh buffer (containing 1% v/v DMSO). For assessment of B-A permeability, HBSS was removed from the companion plate and replaced with test compound dosing solution. Fresh buffer (containing 1% v/v DMSO) was added to the apical compartment insert, which was then placed into the companion plate.
Compound permeability was assessed in duplicate. Compounds of known permeability characteristics were run as controls on each assay plate.
Test and control compounds were quantified by LC–MS/MS cassette analysis using a 7-point calibration with appropriate dilution of the samples. The starting concentration (C0) was determined from the dosing solution and the experimental recovery calculated from C0 and both apical and basolateral compartment concentrations. The integrity of the monolayer throughout the experiment was checked by monitoring lucifer yellow permeation using fluorimetric analysis.
The permeability coefficient (Papp) for each compound was calculated from the following equation: Papp=dQ/dtC0×A where dQ/dt was the rate of permeation of the drug across the cells, C0 was the donor compartment concentration at time zero and A was the area of the cell monolayer. C0 was obtained from analysis of the dosing solution.
Efflux ratio (ER) was calculated from mean A-B and B-A data. This was derived from: ER=Papp(B-A)Papp(A-B)

Where “and” joins values, the source holds several entries; their conditions need not be identical. Equal values may be shown once.

On to `CC(C)NCC(O)COc1ccc(CC(N)=O)cc1` (stereo not shown) [atenolol, reference compound], for which the “Papp A2B Replicate 1” value was 0.298 10-6 cms-1 and 0.155 10-6 cms-1 and 0.487 10-6 cms-1; the “Papp A2B Replicate 2” value was 0.336 10-6 cms-1 and 0.187 10-6 cms-1 and 0.460 10-6 cms-1; the “Papp B2A Replicate 1” value is 0.785 10-6 cms-1 and 0.251 10-6 cms-1 and 0.885 10-6 cms-1; the “Papp B2A Replicate 2” value is 0.662 10-6 cms-1 and 0.380 10-6 cms-1 and 0.813 10-6 cms-1.
